Measurements: article PMC6582535
No constants are given. Whether binding was seen depends on the method and setting. In cells and extracts the contact can be indirect.

Target: T1, Cholecystokinin type B receptor (mouse (endogenous in DRG)) (UniProt P56481)
T1 sequence: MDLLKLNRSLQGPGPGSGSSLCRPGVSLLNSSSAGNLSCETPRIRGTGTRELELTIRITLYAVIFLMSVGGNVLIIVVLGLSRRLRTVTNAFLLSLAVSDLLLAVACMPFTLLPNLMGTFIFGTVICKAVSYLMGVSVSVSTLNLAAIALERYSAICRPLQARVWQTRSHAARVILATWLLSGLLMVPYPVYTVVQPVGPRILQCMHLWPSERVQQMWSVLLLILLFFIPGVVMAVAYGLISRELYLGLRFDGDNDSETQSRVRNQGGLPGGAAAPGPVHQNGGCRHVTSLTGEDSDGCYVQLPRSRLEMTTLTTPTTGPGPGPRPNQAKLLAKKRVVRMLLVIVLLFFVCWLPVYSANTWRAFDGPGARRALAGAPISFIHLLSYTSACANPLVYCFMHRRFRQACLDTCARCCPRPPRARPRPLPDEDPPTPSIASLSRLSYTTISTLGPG
Assay: co-IP; mouse DRG extract (500 μg protein; Tris 20 mM pH 7.4, NaCl 150 mM, EDTA 1 mM, 0.5% Triton, DTT 1 mM) incubated at 4 °C with goat polyclonal anti-CCK-BR, Protein A-Sepharose beads; blots for Gαo or Gαi

binding: no binding
Substance: G-protein Gαi subunit (mouse (endogenous in DRG))
